The full ranking holds about 33,000 sequences; the median of “E-score (-0.5 to 0.5)” is about -0.016, and the highest 2% start at about 0.3. The list shows a part of the results.
These sequences were tested against T1, Yer184c (UniProt P39961) (assay: PBM E-score (8-mer binding enrichment) (E-score (-0.5 to 0.5)); higher = stronger / more preferred TF binding). Conditions: protein concentration: 100 nM; construct: GST-full length.
T1 sequence: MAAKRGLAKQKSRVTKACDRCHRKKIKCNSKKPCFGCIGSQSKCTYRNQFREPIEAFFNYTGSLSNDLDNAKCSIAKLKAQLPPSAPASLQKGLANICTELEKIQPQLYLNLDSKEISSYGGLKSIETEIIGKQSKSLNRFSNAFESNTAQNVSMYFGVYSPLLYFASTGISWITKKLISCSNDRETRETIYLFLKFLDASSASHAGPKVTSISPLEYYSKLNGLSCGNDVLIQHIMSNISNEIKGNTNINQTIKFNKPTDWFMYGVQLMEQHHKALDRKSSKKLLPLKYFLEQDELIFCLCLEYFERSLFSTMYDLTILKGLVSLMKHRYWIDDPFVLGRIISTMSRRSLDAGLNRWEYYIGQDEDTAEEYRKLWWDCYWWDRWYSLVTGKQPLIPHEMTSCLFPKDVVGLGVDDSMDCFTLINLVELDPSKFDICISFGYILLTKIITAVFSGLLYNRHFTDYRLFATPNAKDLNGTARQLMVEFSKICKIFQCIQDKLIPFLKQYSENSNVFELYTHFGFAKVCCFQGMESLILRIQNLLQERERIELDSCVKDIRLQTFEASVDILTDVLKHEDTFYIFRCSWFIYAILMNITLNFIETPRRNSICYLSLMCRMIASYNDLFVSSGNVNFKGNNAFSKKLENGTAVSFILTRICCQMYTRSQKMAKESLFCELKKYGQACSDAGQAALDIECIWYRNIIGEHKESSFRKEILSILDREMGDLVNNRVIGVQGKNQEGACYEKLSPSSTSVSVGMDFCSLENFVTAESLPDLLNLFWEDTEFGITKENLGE
Procedure, shortened: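 For each ungapped eight-base word taken together with its reverse complement, the Universal PBM Analysis Suite assigned an E-score. Binding data came from GST-tagged yeast transcription factors, applied at about 100-200 nM, on universal all-10-mer Agilent arrays made double-stranded by primer extension. Fluorescent anti-GST marked bound protein, and scans were normalised with masliner.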

| Sequence | PBM E-score |
| --- | --- |
| ATTATATA | 0.212 |
| AGGCCGCA | -0.0659 |
| CCGACACA | 0.00368 |
| TCGCTAAA | 0.0346 |
| CACTCACA | -0.0895 |
| AGGTCCAT | -0.149 |
| ACTGTTCA | -0.0211 |
| GGTACTAC | 0.0369 |
| CTTCGGGC | -0.0555 |
| CGCAGTTC | -0.00252 |
| AGTAGCCC | -0.044 |
| AGTGGCAT | -0.179 |
| CCACTAAG | -0.0362 |
| GCGAAGCA | -0.0165 |
| AGATTTTA | -0.0159 |
| TATTGGGA | -0.0671 |
| GGAGGACC | -0.262 |
| CACCGATG | -0.0405 |
| CCCGATTA | 0.0478 |
| AGACTCAG | 0.0226 |
| AGGACTGC | -0.279 |
| CTGCACAG | -0.0706 |
| TAGCTAAA | 0.085 |
| GGGAAGAC | -0.0375 |
| AGGGATGG | -0.086 |

A different layout for some results above:
Sequence,PBM E-score
TCGCTAAA,0.0346
CACTCACA,-0.0895
CTGCACAG,-0.0706

The list goes on.

| Sequence | PBM E-score |
| --- | --- |
| CGGACTAA | 0.235 |
| AGTTTTGC | 0.202 |
| CACACCAG | -0.142 |
| ACGACGCA | 0.00815 |
| AATCCCCA | -0.187 |
| ACCTTTGA | 0.0153 |
| ATCCTCAA | 0.0114 |
| GCAATCGA | -0.0134 |
| ATTACGCG | 0.0235 |
| ACGTCATG | -0.0927 |
| CGGGTAAC | 0.108 |
| ACCAGCGA | -0.158 |
| CAGCCGCA | -0.134 |
| GAATTCAC | 0.092 |
| GTATCCAA | -0.0563 |
| CACCGGAA | 0.368 |
| CCATGTGA | -0.209 |
| AAATTAGA | 0.207 |
| CTCGTTGA | -0.229 |
| TCCAATCA | -0.0172 |
| ATTGACAG | 0.0247 |
| GAAAGTCC | -0.0817 |
| AGCTACGC | -0.0531 |
| TAAAGAAA | 0.268 |
| ACGTTAGG | -0.217 |

| Sequence | PBM E-score |
| --- | --- |
| ACGAACGC | 0.11 |
| CGCGGATA | 0.317 |
| ATCACCAG | -0.145 |
| GGTAGTCA | -0.22 |
| ACTGAAAA | 0.158 |
| CTTCTCTC | 0.0203 |
| ACGCCTCG | -0.0178 |
| CTTAGCTA | -0.154 |
| ACAAGGGT | -0.0932 |
| GGAACTCA | 0.0136 |
| AGTAGCAC | -0.114 |
| TCATGGAA | 0.125 |
| TCATAGGA | -0.0683 |
| CTGACCGC | 0.0354 |
| AAGGATAG | 0.0283 |
| ACATGGGT | 0.00449 |
| ACGGATCT | 0.213 |
| GTGGGCGA | -0.119 |
| GTATTCGA | -0.256 |
| CCGGAGAC | 0.303 |
| ATAGAACC | -0.0934 |
| ACTAGTAT | 0.147 |
| CAGAGGAC | -0.112 |
| ACAGACCA | 0.0448 |
| GCGTTGTA | 0.0229 |

| Sequence | PBM E-score |
| --- | --- |
| CCATGAAA | 0.0937 |
| CTAGCCAC | -0.278 |
| GATTGCGC | 0.144 |
| TCAGTCAA | 0.102 |
| CAGGGCGC | -0.11 |
| CGCGGAAC | 0.382 |
| ACAGCCAA | -0.0569 |
| GGCGACAA | 0.0682 |
| ACAAGGGC | -0.309 |
| AGTGTAAG | -0.253 |
| CCCTAAGG | -0.174 |
| AGCGGAGA | -0.0382 |
| ACTATATC | 0.013 |
| GTCGGATA | 0.122 |
| CATAGCTA | -0.172 |
| ATGGAGAG | -0.0917 |
| CGAGGCCA | -0.0953 |
| AGGCGACG | -0.145 |
| GGGGACCC | -0.277 |
| AATCTCCT | -0.208 |
| CCCGTGAC | -0.0772 |
| GTACAAAA | 0.131 |
| TACCCCGA | 0.147 |
| ACTCAAGG | -0.0344 |
| ATTTCACC | 0.0839 |

| Sequence | PBM E-score |
| --- | --- |
| CAACGTTC | -0.0683 |
| AGGTTGGA | 0.0437 |
| CTTTCCTA | -0.101 |
| ATCGTGTG | 0.0811 |
| CTGTTGAA | 0.271 |
| ATTTTGGC | 0.123 |
| ACTGGTTA | 0.0241 |
| ACTTTAAC | 0.00964 |
| ACAGGCCA | -0.116 |
| ATATCCCA | 0.147 |
| CAGTTGTA | -0.0804 |
| CGTCAATC | 0.0423 |
| AGAAGTAG | -0.178 |
| CTGGTGTA | -0.234 |
| CCATCTCG | -0.0305 |
| ACGATTGG | -0.0158 |
| AGCGGTTA | -0.0442 |
| ATGCCTTC | -0.164 |
| AGGGAGCG | -0.183 |
| ATATTCAT | 0.043 |
| CATACCGG | 0.0061 |
| ACCGTCTC | 0.12 |
| CCGTTGAC | -0.0859 |
| ATCAAGGA | -0.0495 |
| ACCGACCA | 0.0704 |

| Sequence | PBM E-score |
| --- | --- |
| AAAGATCA | 0.163 |
| ACACCTAC | -0.161 |
| ATGTAAAA | 0.109 |
| CCTTTCCC | 0.125 |
| AACCATCA | 0.0573 |
| ATTCATAC | 0.165 |
| GATTTTAA | 0.154 |
| ACAACAGG | 0.0435 |
| CTAAAAAA | 0.226 |
| ATGCAAAT | 0.00245 |
| ATGAGTGC | -0.00199 |
| AAAATCAG | 0.0867 |
| CAAGGTAA | 0.0865 |
| ATGGATTG | 0.0538 |
| CTCTTATC | 0.158 |
| CTTATCAA | 0.116 |
| GCTCTACA | 0.0271 |
| AGTACTAC | 0.102 |
| AGAGAAGC | -0.0358 |
| GGCTGGCA | -0.301 |
| AGCGGTAA | 0.0767 |
| ATAGGCAC | -0.237 |
| AGTTAGCA | 0.0491 |
| ACTATACG | 0.0833 |
| ACCAGAGG | -0.189 |

| Sequence | PBM E-score |
| --- | --- |
| ACAATAGG | -0.015 |
| AATAAAGA | 0.132 |
| AATGCATA | -0.0579 |
| AGTGCGAG | -0.0901 |
| GACTCCTC | -0.0552 |
| AGAGGCCA | -0.291 |
| TCGTCTAA | 0.00749 |
| CCGGGATC | 0.339 |
| AGCCCGAT | -0.0108 |
| TGTCCCAA | -0.00913 |
| ATCGTGGG | -0.0117 |
| ATAGTCTG | 0.0462 |
| CGTATCTC | 0.0677 |
| GCTTCGCA | -0.163 |
| AACAGGGG | -0.0987 |
| AGGGCAAG | -0.0444 |
| ATACGATG | -0.0137 |
| GAGCGAGC | 0.102 |
| ACGTATGG | -0.113 |
| ACTTCAAG | -0.0326 |
| ACTGTCTA | -0.0497 |
| CACAGCCC | -0.192 |
| GTGAAGGA | -0.0595 |
| CAAACCGA | 0.117 |
| ATGAACAC | 0.125 |

Some of the entries so far, bar-delimited:
Sequence | PBM E-score
AGCCCGAT | -0.0108
ATACGATG | -0.0137
ACTTCAAG | -0.0326

Continued.

| Sequence | PBM E-score |
| --- | --- |
| GCAAAGAA | 0.171 |
| AAAAATTT | 0.297 |
| ACGAAAAT | 0.163 |
| AGGCTTGG | -0.204 |
| AACCCGCA | -0.0626 |
| AGAAAGTC | 0.133 |
| ATAAATCG | 0.178 |
| GAGTCGAC | -0.0678 |
| ACATAGTC | -0.111 |
| ACTCTCAG | -0.161 |
| CGTCGACA | -0.035 |
| ACCCTGCT | -0.261 |
| GACAAGCC | -0.00546 |
| GGTCAGAA | 0.094 |
| CCGGAAAC | 0.396 |
| GGAATTAA | 0.189 |
| CATACAAG | -0.097 |
| CCATGAGC | -0.229 |
| ATGTGTTG | 0.158 |
| CTCCGAAC | 0.323 |
| GACTGGGA | -0.179 |
| ATAGCGAG | -0.0798 |
| GACAGGGC | -0.154 |
| CTCCCAAC | -0.149 |
| ACTCAGCA | 0.0401 |

| Sequence | PBM E-score |
| --- | --- |
| AGGTCAAA | -0.156 |
| CTCGTCGC | -0.186 |
| ACCTGTGC | -0.172 |
| GGTTGCTA | -0.0171 |
| CGAGTGAG | 0.125 |
| GTCTTCGA | 0.0694 |
| TCTCCAGA | -0.109 |
| AAGAGTGA | -0.0962 |
| CTACCAAA | 0.0165 |
| AGAACACT | -0.032 |
| GCGTCATA | 0.152 |
| TGCTCCCA | 1e-05 |
| GGGTGCCA | -0.125 |
| CTAGGTCC | -0.0874 |
| AGCCACCG | -0.0082 |
| GAACACCC | -0.0175 |
| GCGACAGA | -0.055 |
| TTGTACAA | 0.149 |
| AGGTAAAA | 0.0579 |

Three entries picked at random from those above:

| Sequence | PBM E-score |
| --- | --- |
| ACCTGTGC | -0.172 |
| GTCTTCGA | 0.0694 |
| CTACCAAA | 0.0165 |

— the supplement of paper PMC3334620
